These are yes or no findings as the source states them, for the method shown. Some binding calls cover weakened binding; strength is not graded here.
Tests used:
[1] = molecular target: T1, peptide consisting of the first 20 amino acids of htt, …-biotin; test: yeast surface display, flow cytometry dot plot; FL1 = display, FL2 = binding of the huntingtin peptide at 1 nM (concentration from the legend)
T1 sequence (peptide, C-terminal biotin): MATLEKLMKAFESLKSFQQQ

[2] = molecular target: T1, peptide consisting of the first 20 amino acids of htt, …-biotin; test: yeast surface display, flow cytometry dot plot; FL1 = display, FL2 = binding of the huntingtin peptide at 1 nM
[3] = molecular target: T1, peptide consisting of the first 20 amino acids of htt, …-biotin; test: yeast surface display, flow cytometry, labeled at 1 nM huntingtin peptide

binding [1]: binds
binding [2]: binds
binding [3]: binds
B1: engineered (affinity matured) disulfide-free SDIb of Examples 1 and 3 (other)
VL: SRPVLTQSPSVSAAPRQRVTISVSGSNSNIGSNTVNWIQQLPGRAPELLMYDDDLLAPGVSDRFSGSRSGTSASLTISGLQSEDEADYYAATWDDSLNDWVFGGGTKVTVLS
notes: expressed in yeast cytoplasm for the aggregation assay (construct not described); also called engineered SDIb
